Laboratory results as given in PubChem BioAssay (NCATS).
Some of the results follow. Further columns of the screen follow, without active or inactive calls. Compounds called inactive in the main read-out are mostly missing here. The note in brackets gives the kind of curve behind each potency; many fits are weak.

assay: qHTS Assay for Modulators of Human Peripheral Myelin Protein 22 (PMP22) Expression/Activity (AID 1967); conditions: Cell-based PMP22 reporter, dual-color luciferase ratio; measured here: green reporter channel AC50; mouse Pmp22 promoter in mouse Schwann cells
Text: Charcot-Marie-Tooth-Association [CMTA]
NIH Chemical Genomics Center [NCGC]
Charcot-Marie-Tooth (CMT) disease was first characterized by Jean-Martin Charcot and Pierre Marie in France and, independently, by Howard Henry Tooth in England in 1886. CMT is one of the most common inherited neurological diseases, affecting about 125,000 Americans. […] The most common cause of CMT is known as CMT1A, and is caused by a duplication of the PMP22 gene, leading to over-expression of this protein. PMP22 is a glycosylated intrinsic membrane protein accounting for 2-5% of the myelin protein content and over-expression leads to demyelination and subsequently axonal loss.
A cell-based assay for PMP22 expression modulation was developed by Drs. Ned Mantei and Ueli Suter on behalf of the CMTA. This assay employs a mouse Schwann cell line, MSC80 (Boutry et al., 1992), that was engineered to have the mouse Pmp22 promoter driving expression of a green light-emitting click beetle luciferase (CBG68; Chroma-Gl developed by Promega Corp). A red light-emitting click beetle luciferase (CBR; developed by Promega Corp: CBG68 and CBR differ by only a few amino acids within the D-luciferin binding pocket) under control of the EF-alpha promoter is also stably expressed in the same cells for use as an internal control for nonspecific promoter- or reporter-based effects.
NCGC Assay Protocol Summary:
Cells were seeded in white solid 1536-well plates at between 500-750 cells/4uL in DMEM medium containing 10% FBS, w/o phenol red. After overnight incubation at 37 degree Celsius/5% C02, 23 nL of compounds or DMSO were delivered to each well using a pin tool, followed by 24h-incubation at 37 degree Celsius/5% C02. Then 4 uL Chroma-Glo luminescent substrate mix (Promega) was added to each well. Luminescence was measured on a ViewLux plate reader (Perkin Elmer) using a 540/25 nm filter for green luminescence and a 618/8 nm filter for red luminescence. The green and red luminescent signals were corrected for red and green luminescence filter overlap using filter calibration constants (determined using control cell lines expressing either the green or red CBLuc reporters using the procedures given in Davis et al., 2007). The %Activity was determined from the ratio of corrected green/red luminescent values. Green luminescent and ratio %Activity was determined by normalizing to the signal between of untreated cells (0% Activity)
Keywords: luminescence, PMP22, CMT1A, NCGC, CMTA, qHTS
Concentration-response curves were fitted to the signals arising from the green luminescence (PMP22 promoter driven expression) and the red luminescence (control promoter) as well as the calculated ratio. The concentration-effect curves were then classified based on curve quality (r2), response magnitude and degree of measured activity.

| Structure (SMILES) | AC50 |
| --- | --- |
| CCCOC(=O)c1c(-c2ccccc2)nc(CC)c(C(=O)SCC)c1CCC | 60.1 µM [falling, partial curve] |
| CC1(C)CCC2=C(O1)c1ccccc1C(=O)C2=O | 30.1 µM [falling, full curve] |
| Nc1nc(Cl)nc2c1ncn2[C@@H]1O[C@H](COP(=O)(O)OP(=O)(O)OP(=O)(O)O)[C@H](O)[C@H]1O | 19 µM [falling, full curve] |
| O=S(=O)(NCCNC/C=C/c1ccc(Br)cc1)c1cccc2cnccc12 | 42.6 µM [falling, partial curve] |
| CN(C)CCC=C1c2ccccc2C=Cc2ccccc21 | 37.9 µM [falling, partial curve] |
| CCn1c(=O)c2[nH]c(-c3ccccc3)nc2n(CC)c1=O | 67.5 µM [falling, partial curve] |
| NCCCCCCNS(=O)(=O)c1cccc2c(Cl)cccc12 | 53.6 µM [falling, partial curve] |
| CC(C)c1ccc2c(c1)c(SC(C)(C)C)c(CC(C)(C)C(=O)O)n2Cc1ccc(Cl)cc1 | 60.1 µM [falling, partial curve] |
| Cc1oncc1C(=O)Nc1ccc(C(F)(F)F)cc1 | 8.49 µM [rising, partial curve, poor fit] |
| OCCN1CCN(CCCN2c3ccccc3Sc3ccc(Cl)cc32)CC1 | 47.8 µM [falling, partial curve] |
| Cc1c(C)c2c(c(C)c1O)CCC(C)(CN1CCN(c3cc(N4CCCC4)nc(N4CCCC4)n3)CC1)O2 (stereo not given) | 33.8 µM [falling, full curve] |
| COc1ccccc1N1CCN(CCN(C(=O)C2CCCCC2)c2ccccn2)CC1 | 75.7 µM [falling, single point] |
| N.N.N.N.N.N.N.N.N.N.N.N.N.N.O.O.[Cl-].[Cl-].[Cl-].[Cl-].[Cl-].[Cl-].[Ru].[Ru].[Ru] | 60.1 µM [falling, partial curve] |
| CN1Cc2c(N)cccc2C(c2ccccc2)C1 (stereo not given) | 53.6 µM [falling, partial curve, poor fit] |
| C=CCc1ccccc1OCC(O)CNC(C)C (stereo not given) | 95.3 µM [falling, single point] |
| COC(=O)c1c(-c2cc(OC)c(OC)c(OC)c2)c2ccc(OCc3ccccn3)cc2c(=O)n1-c1ccc(N)cc1 | 84.9 µM [falling, single point] |
| Cc1ccccc1/C=C/C1=NCCN1 | 67.5 µM [falling, partial curve, poor fit] |
| CCCCc1oc2ccccc2c1C(=O)c1cc(I)c(OCCN(CC)CC)c(I)c1 | 21.3 µM [falling, full curve] |

same assay, conditions: Cell-based PMP22 reporter, dual-color luciferase ratio; measured here: red reporter channel AC50; EF-alpha promoter control reporter in MSC80 mouse Schwann cells

| Structure (SMILES) | AC50 |
| --- | --- |
| CCCOC(=O)c1c(-c2ccccc2)nc(CC)c(C(=O)SCC)c1CCC | 75.7 µM [falling, partial curve] |
| CC1(C)CCC2=C(O1)c1ccccc1C(=O)C2=O | 37.9 µM [falling, full curve] |
| Nc1nc(Cl)nc2c1ncn2[C@@H]1O[C@H](COP(=O)(O)OP(=O)(O)OP(=O)(O)O)[C@H](O)[C@H]1O | 19 µM [falling, full curve] |
| O=S(=O)(NCCNC/C=C/c1ccc(Br)cc1)c1cccc2cnccc12 | 47.8 µM [falling, partial curve] |
| CN(C)CCC=C1c2ccccc2C=Cc2ccccc21 | 47.8 µM [falling, partial curve] |
| CCn1c(=O)c2[nH]c(-c3ccccc3)nc2n(CC)c1=O | 37.9 µM [falling, partial curve] |
| NC(=O)c1ccccc1 | 95.3 µM [falling, single point] |
| NC(=NCc1ccccc1)NC(=O)c1nc(Cl)c(N)nc1N | 53.6 µM [falling, partial curve, poor fit] |
| COc1cc2c(cc1O)CCC1C2CC[C@]2(C)[C@@H](O)CC[C@@H]12 (stereo not given in full) | 2.69 µM [falling, full curve] |
| NCCCCCCNS(=O)(=O)c1cccc2c(Cl)cccc12 | 67.5 µM [falling, partial curve] |
| CC(C)c1ccc2c(c1)c(SC(C)(C)C)c(CC(C)(C)C(=O)O)n2Cc1ccc(Cl)cc1 | 33.8 µM [falling, partial curve] |
| Cc1oncc1C(=O)Nc1ccc(C(F)(F)F)cc1 | 37.9 µM [falling, full curve] |
| OCCN1CCN(CCCN2c3ccccc3Sc3ccc(Cl)cc32)CC1 | 47.8 µM [falling, partial curve, poor fit] |
| Cc1c(C)c2c(c(C)c1O)CCC(C)(CN1CCN(c3cc(N4CCCC4)nc(N4CCCC4)n3)CC1)O2 (stereo not given) | 30.1 µM [falling, full curve] |
| COc1ccccc1N1CCN(CCN(C(=O)C2CCCCC2)c2ccccn2)CC1 | 67.5 µM [falling, partial curve] |
| Cn1cnc([N+](=O)[O-])c1Sc1ncnc2nc[nH]c12 | 47.8 µM [falling, partial curve] |
| CN1Cc2c(N)cccc2C(c2ccccc2)C1 (stereo not given) | 67.5 µM [falling, partial curve, poor fit] |
| CC(C)NC[C@H](O)COc1ccc(CC(N)=O)cc1 | 84.9 µM [falling, single point] |
| C=CCc1ccccc1OCC(O)CNC(C)C (stereo not given) | 84.9 µM [falling, single point] |
| COC(=O)c1c(-c2cc(OC)c(OC)c(OC)c2)c2ccc(OCc3ccccn3)cc2c(=O)n1-c1ccc(N)cc1 | 95.3 µM [falling, single point] |
| Cc1ccccc1/C=C/C1=NCCN1 | 60.1 µM [falling, partial curve, poor fit] |
| CCCCc1oc2ccccc2c1C(=O)c1cc(I)c(OCCN(CC)CC)c(I)c1 | 19 µM [falling, full curve] |
